According to PubChem BioAssay AID1487 (National Center for Advancing Translational Sciences (NCATS), 2009):
Several values for one entry are separate records, joined by “and”; a condition that tells them apart may be missing. Equal entries are not always repeated. The list shows a part of the results. Further columns of the screen follow, without active or inactive calls. Most of these compounds were active or inconclusive in the main read-out, so they are no random draw. Words in brackets tell the shape of the fitted curve; partial curves, single points and poor fits give uncertain potencies.

Assay: qHTS Assay for Modulators of Lamin A Splicing
Conditions: HeLa LMNA splicing GFP/RFP minigene ratio, 48 h
Summary of the method: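 S3 HeLa stable clones carrying a lamin A-EGFP splicing minigene plus DsRed2 were seeded at 600 cells/well in Opti-MEM with 2% FBS, pin-dosed and incubated 48 h at 37°C. Acumen cytometry (488 nm) gave the GFP/RFP total-intensity ratio.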

[1] = measured here: GFP splicing reporter channel
[2] = measured here: RFP viability control channel

SMILES: COc1ccccc1/C=C(/CC(=O)NCc1ccc(F)cc1)c1nc2ccccc2s1
- AC50 [1]: 11.2 µM [rising, partial curve]
- AC50 [2]: 17.8 µM [rising, single point]

SMILES: Nc1nnc(SCC(=O)Nc2ccc3nc(SCC(=O)Nc4ccccc4)sc3c2)s1
- AC50 [2]: 0.794 µM [rising, full curve, poor fit]

SMILES: CCOC(=O)c1cc(C#N)c(N2CCCC2)nc1-c1ccccc1
- AC50 [1]: 12.6 µM [rising, single point]
- AC50 [2]: 14.1 µM [rising, single point]

SMILES: CC(=O)c1ccc(NC(=O)C(C)n2nc(-c3ccccc3)c3cc(Cl)ccc32)cc1 (centres undefined)
- AC50 [2]: 22.4 µM [rising, single point]

SMILES: CCCCCCCCN=C1NC(=O)CS1
- AC50 [2]: 3.98 µM [falling, partial curve]

SMILES: CC(=O)c1ccc(Oc2cc(C)nc(NCc3ccccc3)n2)cc1
- AC50 [1]: 12.6 µM [rising, single point]
- AC50 [2]: 15.8 µM [rising, single point]

SMILES: CC(=O)[C@H]1CC[C@H]2[C@@H]3C=CC4=CC(=O)CC[C@@]4(C)[C@H]3CC[C@]12C
- AC50 [1]: 14.1 µM [rising, single point]

SMILES: Cc1ccc2[nH]c3c(c2c1)CCNC3=O
- AC50 [2]: 35.5 µM [falling, single point]

SMILES: O=C(COC(=O)C1CC(=O)N(Cc2ccccc2)C1)Nc1ccc(Cl)cc1F (centres undefined)
- AC50 [1]: 0.0316 µM [falling, full curve, poor fit]

SMILES: Clc1ccccc1Nc1c2c(nc3ncnn13)CCC2
- AC50 [1]: 14.1 µM [rising, single point]
- AC50 [2]: 35.5 µM [rising, single point]

SMILES: CC(C)(C)NC(=S)NNC(=O)c1cccc(Br)c1
- AC50 [1]: 6.31 µM [rising, partial curve]

SMILES: O=C(NC1(C(F)(F)F)N=C(c2ccccc2)NC1=O)c1ccc(Cl)cc1Cl (centres undefined)
- AC50 [1]: 11.2 µM [rising, partial curve, poor fit]
- AC50 [2]: 15.8 µM [rising, single point]

SMILES: CCOC(=O)c1sc(NC(=O)c2ccc(S(=O)(=O)N3CCCCCC3)cc2)nc1-c1ccccc1
- AC50 [1]: 10 µM [rising, single point]
- AC50 [2]: 12.6 µM [rising, partial curve]

SMILES: Cc1ccc(C(=O)CC(=O)c2cc(Cl)ccc2O)cc1
- AC50 [2]: 11.2 µM [rising, partial curve]

SMILES: COc1ccccc1NC(=O)COC(=O)C12CC3CC(CC(Cl)(C3)C1)C2
- AC50 [2]: 0.0447 µM [falling, full curve, poor fit]

SMILES: Cc1[nH]n(-c2ccccc2)c(=O)c1N=Nc1nccs1
- AC50 [2]: 2.24 µM [rising, full curve]

SMILES: CCOC(=O)C(C)(C)N(Cc1cccc(C)c1)S(=O)(=O)c1cccc([N+](=O)[O-])c1
- AC50 [2]: 3.16 µM [rising, full curve, poor fit]

SMILES: COc1ccc(C2CC(c3ccccc3)=NN2C(=O)COC(=O)c2cccc(S(=O)(=O)N(C)C)c2)cc1 (centres undefined)
- AC50 [2]: 14.1 µM [rising, single point]

SMILES: Cc1cn2c(=O)cc(COC(=O)c3cccc(NC(=O)COc4ccccc4)c3)nc2s1
- AC50 [2]: 0.00447 µM [falling, full curve, poor fit]

SMILES: CN(C)c1ccc(C(C(=O)NC(C)(C)C)N(C(=O)c2csnn2)C2CC2)cc1 (centres undefined)
- AC50 [2]: 22.4 µM [rising, partial curve]

SMILES: O=C1c2c(O)ccc(O)c2C(=O)c2c(NCCNCCO)ccc(NCCNCCO)c21
- AC50 [1]: 11.2 µM [rising, partial curve] and 2.51 µM [falling, full curve]
- AC50 [2]: 70.8 nM [rising, full curve, poor fit] and 6.31 µM [falling, partial curve]

SMILES: Cc1cc(N2CCN(S(=O)(=O)c3ccccc3)CC2)c2ccccc2n1
- AC50 [2]: 11.2 µM [rising, single point]

SMILES: CCOc1ccc(N2C(=O)CC(N(CCc3ccc(OC)c(OC)c3)C(=S)Nc3ccccc3)C2=O)cc1 (centres undefined)
- AC50 [2]: 0.1 µM [rising, full curve, poor fit]

SMILES: Cc1ccc(C(=O)NNC(=S)NC(=O)c2ccco2)cc1
- AC50 [2]: 11.2 µM [rising, single point]

SMILES: CN1CCN(S(=O)(=O)c2ccc(SCCOc3ccccc3)nc2)CC1
- AC50 [2]: 8.91 µM [rising, partial curve, poor fit]

SMILES: COc1ccc(/C=C/c2ccncc2)c2ccccc12
- AC50 [1]: 20 µM [rising, single point]
- AC50 [2]: 35.5 µM [rising, single point]

SMILES: COc1ccc(Cn2c(-c3ccc(C)cc3)c[n+]3ccccc23)cc1
- AC50 [2]: 7.08 µM [rising, partial curve]

SMILES: CCc1nc(C#N)c(N2CCCCC2)o1
- AC50 [2]: 0.0316 µM [falling, full curve, poor fit]

SMILES: CCOC(=O)c1[nH]c2ccc(OCC)cc2c1CCCN1C(=O)c2ccccc2C1=O
- AC50 [1]: 0.398 µM [rising, full curve, poor fit]

SMILES: CCC(C)NC(=O)Cc1c(OC)ccc2cc(Br)ccc12 (centres undefined)
- AC50 [1]: 0.158 µM [falling, single point]

SMILES: Cc1cc(Cl)c(S(=O)(=O)Nc2ccc3c(c2)OCO3)cc1OCC(=O)NC1CCCCC1
- AC50 [2]: 35.5 µM [rising, single point]

SMILES: COc1cc(C(=O)N2CCc3c([nH]c4ccccc34)C2c2ccc(F)cc2)cc(OC)c1OC (centres undefined)
- AC50 [2]: 1.41 µM [falling, full curve]

SMILES: O=C1C2C3C=CC(C3)C2C(=O)N1CCN1CCN(S(=O)(=O)c2ccc3ccccc3c2)CC1 (centres undefined)
- AC50 [2]: 20 µM [rising, single point]

SMILES: CC(NC(=O)c1cc2sccc2n1C)c1ccc2c(c1)OCCO2 (centres undefined)
- AC50 [2]: 10 µM [rising, partial curve, poor fit]

SMILES: CCC(=O)N1CCc2cc(CNC(=O)Cc3ccc(OC)c(OC)c3)ccc21
- AC50 [2]: 0.0794 µM [falling, full curve, poor fit]

SMILES: Cc1sc(NC(=O)c2ccccc2)c(C(=O)c2ccccc2)c1C
- AC50 [2]: 10 µM [rising, partial curve, poor fit]
